The other results are listed elsewhere or left out. These are raw signals, not scaled to a control.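 In the initial screen, polymyxin B was used at a concentration that permeabilizes Salmonella's outer membrane but not its inner membrane. Maximum growth was set by DMSO wells with or without polymyxin B. Since plates varied, data were ranked per plate, and compounds giving the lowest OD600 advanced as hits.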
Test system: Salmonella enterica serovar Typhimurium SL1344
Assay: bacterial growth OD600 after 18 h with compound and polymyxin B; higher = more bacterial growth (less inhibition)
Conditions: 50 µM, Mueller-Hinton broth

SMILES | bacterial growth OD600 (polymyxin B 0.75 µg/mL) | bacterial growth OD600 (polymyxin B 1 µg/mL)
COc1cc(CN2CCC3(CC2)c2ccccc2[C@@H](NC(=O)Cc2cccs2)[C@@H]3OC)ccc1O | 0.792 | 
CC(NC(=O)CCC1(Cc2ccco2)CCC(=O)N1)c1ccccc1Cl (centres undefined) | 0.856 | 
COc1ccccc1OC1CCN([C@H]2CN(S(=O)(=O)c3ccccc3)C[C@@H]2O)CC1 |  | 0.975
CCCN(CC1CC1)C(=O)CC1(c2ccccc2OC)CC(=O)N(CCCOC)C1=O (centres undefined) | 0.509 | 
COC(c1ccccc1)c1nnc(CCC(=O)NCc2cc(F)ccc2C)o1 (centres undefined) |  | 0.894
Cc1ccccc1CC(=O)NCc1nc(-c2ccc(NC(=O)Cc3ccccc3)cc2)oc1C | 0.845 | 
COc1ccc(C(=O)N2CCCC2)c(OC2CCN(C(C)C)CC2)c1 |  | 0.864
O=C(NCc1cccnc1Oc1ccc(F)c(F)c1)c1cc[n+]([O-])cc1 |  | 1.29
CCC1C(=O)N(C)CCN1c1ccc(-c2nc(C(C)C)no2)cn1 (centres undefined) | 0.93 | 

Given as tab-separated lines: part of the list above.
SMILES	bacterial growth OD600 (polymyxin B 0.75 µg/mL)	bacterial growth OD600 (polymyxin B 1 µg/mL)
COC(c1ccccc1)c1nnc(CCC(=O)NCc2cc(F)ccc2C)o1 (centres undefined)		0.894
Cc1ccccc1CC(=O)NCc1nc(-c2ccc(NC(=O)Cc3ccccc3)cc2)oc1C	0.845	
